According to the supplement of paper PMC12823440, “Inhibitors supercharge kinase turnover through native proteolytic circuits” (Nature, 2025):
Some of the results follow. Hit calls seldom repeat between salt and free forms of one compound.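 Kinases were expressed as nanoluciferase fusions in K562 cells and luminescence was read every 4 h between 2 and 18 h as percent of control, DMSO set to 100% and a positive control to 0%. A time point counts as decreased when the signal drops significantly (2 sigma). The hit call is the authors' own, does not follow from the count of time points alone, and its rule is not shown.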

By UniProt entry, the sequences of proteins in these tests, tags left out. Where a name states a change or a piece, a line headed by the entry shows the natural chain unless it says otherwise.
UniProt P06241, whole entry, looked up: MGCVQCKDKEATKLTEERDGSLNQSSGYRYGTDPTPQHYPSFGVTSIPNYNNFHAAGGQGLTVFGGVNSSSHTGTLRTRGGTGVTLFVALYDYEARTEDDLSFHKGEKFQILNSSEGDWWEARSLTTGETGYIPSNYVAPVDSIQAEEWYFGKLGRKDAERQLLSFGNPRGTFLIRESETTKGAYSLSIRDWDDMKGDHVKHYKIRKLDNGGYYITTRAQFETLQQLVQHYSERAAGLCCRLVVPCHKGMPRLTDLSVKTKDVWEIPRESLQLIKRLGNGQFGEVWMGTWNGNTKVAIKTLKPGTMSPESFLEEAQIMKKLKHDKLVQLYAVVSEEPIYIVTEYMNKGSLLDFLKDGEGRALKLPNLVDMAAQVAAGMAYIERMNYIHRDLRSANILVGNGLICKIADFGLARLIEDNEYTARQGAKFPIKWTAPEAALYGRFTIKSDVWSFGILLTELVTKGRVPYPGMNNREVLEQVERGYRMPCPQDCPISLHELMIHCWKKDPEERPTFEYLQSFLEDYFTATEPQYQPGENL
UniProt P28482, whole entry: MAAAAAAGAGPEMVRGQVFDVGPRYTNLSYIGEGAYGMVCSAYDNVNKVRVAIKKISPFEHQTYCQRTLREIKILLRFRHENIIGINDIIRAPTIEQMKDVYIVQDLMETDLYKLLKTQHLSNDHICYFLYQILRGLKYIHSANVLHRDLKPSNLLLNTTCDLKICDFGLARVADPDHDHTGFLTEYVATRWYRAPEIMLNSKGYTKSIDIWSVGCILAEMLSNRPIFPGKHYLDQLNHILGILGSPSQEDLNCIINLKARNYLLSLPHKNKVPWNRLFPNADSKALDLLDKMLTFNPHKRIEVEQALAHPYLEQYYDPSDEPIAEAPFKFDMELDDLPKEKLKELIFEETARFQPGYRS
UniProt P09619, whole entry: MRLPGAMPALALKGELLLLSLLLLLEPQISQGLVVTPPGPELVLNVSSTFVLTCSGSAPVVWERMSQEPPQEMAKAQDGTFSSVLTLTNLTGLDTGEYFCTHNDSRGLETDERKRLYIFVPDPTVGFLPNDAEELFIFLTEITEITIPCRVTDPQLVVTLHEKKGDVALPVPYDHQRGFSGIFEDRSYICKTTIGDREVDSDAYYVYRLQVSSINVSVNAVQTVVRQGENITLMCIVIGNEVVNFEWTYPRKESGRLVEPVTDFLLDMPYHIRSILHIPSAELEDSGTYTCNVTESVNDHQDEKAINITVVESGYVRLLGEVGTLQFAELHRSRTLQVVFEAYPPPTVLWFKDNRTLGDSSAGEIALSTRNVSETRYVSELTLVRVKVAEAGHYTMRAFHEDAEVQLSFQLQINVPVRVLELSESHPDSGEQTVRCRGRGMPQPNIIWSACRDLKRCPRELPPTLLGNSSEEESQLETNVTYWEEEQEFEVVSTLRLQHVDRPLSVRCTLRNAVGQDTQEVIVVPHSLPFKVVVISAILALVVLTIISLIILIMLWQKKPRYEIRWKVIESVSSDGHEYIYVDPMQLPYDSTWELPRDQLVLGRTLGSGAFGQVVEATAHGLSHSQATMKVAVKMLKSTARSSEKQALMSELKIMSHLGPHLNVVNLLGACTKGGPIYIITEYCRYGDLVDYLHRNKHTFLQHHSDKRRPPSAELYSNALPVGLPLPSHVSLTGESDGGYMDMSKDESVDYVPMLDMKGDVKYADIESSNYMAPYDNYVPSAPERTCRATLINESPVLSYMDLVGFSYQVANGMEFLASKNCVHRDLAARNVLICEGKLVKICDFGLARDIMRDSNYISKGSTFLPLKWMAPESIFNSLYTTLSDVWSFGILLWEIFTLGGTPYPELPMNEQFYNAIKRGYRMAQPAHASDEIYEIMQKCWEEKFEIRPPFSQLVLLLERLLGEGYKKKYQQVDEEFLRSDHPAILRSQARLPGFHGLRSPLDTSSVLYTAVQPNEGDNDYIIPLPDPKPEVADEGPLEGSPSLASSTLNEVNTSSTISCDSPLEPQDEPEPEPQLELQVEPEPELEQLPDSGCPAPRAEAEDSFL
UniProt P53671: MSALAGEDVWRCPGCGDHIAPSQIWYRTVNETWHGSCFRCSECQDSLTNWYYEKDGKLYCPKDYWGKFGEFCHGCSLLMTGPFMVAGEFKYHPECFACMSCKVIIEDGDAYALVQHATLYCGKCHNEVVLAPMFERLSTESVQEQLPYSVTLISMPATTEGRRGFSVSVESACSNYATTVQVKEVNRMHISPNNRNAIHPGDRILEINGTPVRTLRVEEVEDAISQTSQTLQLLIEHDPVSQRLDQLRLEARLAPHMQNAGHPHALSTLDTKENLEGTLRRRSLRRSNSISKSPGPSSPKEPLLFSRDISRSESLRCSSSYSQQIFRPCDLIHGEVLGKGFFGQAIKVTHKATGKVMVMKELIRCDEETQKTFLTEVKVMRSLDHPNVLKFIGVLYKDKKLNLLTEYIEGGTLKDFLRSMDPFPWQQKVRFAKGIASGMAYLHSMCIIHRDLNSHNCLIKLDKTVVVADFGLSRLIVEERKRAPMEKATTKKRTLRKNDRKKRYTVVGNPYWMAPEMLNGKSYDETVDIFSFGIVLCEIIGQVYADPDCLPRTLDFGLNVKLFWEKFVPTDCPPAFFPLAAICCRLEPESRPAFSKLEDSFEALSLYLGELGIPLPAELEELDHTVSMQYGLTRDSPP
UniProt P51813: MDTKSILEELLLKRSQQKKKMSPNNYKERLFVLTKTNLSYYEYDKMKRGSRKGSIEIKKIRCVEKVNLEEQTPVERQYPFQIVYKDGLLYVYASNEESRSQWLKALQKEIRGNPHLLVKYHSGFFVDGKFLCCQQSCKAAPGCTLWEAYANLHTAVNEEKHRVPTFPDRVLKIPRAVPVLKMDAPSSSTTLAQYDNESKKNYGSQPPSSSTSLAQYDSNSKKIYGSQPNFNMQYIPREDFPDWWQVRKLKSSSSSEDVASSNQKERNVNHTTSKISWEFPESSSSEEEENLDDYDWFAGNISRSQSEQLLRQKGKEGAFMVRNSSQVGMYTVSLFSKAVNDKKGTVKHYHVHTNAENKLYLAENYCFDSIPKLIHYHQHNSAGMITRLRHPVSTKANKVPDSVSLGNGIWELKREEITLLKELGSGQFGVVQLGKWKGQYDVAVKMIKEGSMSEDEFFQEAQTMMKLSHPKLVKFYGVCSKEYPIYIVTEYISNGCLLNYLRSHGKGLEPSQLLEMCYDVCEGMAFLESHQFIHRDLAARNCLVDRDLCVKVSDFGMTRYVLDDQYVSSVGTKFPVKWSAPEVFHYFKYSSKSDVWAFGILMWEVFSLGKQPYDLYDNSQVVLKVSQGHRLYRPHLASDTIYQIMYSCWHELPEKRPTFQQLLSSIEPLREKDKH
UniProt Q00535, whole entry, looked up: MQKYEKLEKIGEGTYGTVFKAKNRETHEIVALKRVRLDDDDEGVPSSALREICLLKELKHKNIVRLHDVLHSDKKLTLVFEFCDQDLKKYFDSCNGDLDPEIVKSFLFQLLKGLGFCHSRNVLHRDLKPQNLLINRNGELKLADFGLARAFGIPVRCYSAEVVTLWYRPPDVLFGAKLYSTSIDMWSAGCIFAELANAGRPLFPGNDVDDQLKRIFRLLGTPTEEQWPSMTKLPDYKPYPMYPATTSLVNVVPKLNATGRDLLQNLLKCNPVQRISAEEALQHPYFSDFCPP

How the values were obtained:
Assay in all cases: number of time points (of 5) at which kinase-Nluc abundance scored as decreased, DMSO-normalised (count); higher = more persistent destabilization
[1] = compound: OCCn1cc(-c2cnc3nnn(Cc4ccc5ncccc5c4)c3n2)cn1; settings: 10 µM; K562; 2-18 h
PI-103 (Hydrochloride) = compound: Oc1cccc(-c2nc(N3CCOCC3)c3oc4ncccc4c3n2)c1 [PI-103 (Hydrochloride)]; settings: 2.5 µM; K562; 2-18 h
[2] = compound: Oc1cccc(-c2nc(N3CCOCC3)c3oc4ncccc4c3n2)c1; settings: 10 µM; K562; 2-18 h
[3] = compound: c1cc(-c2cnn3cc(-c4ccc(OCCN5CCCCC5)cc4)cnc23)ccn1 [Dorsomorphin (dihydrochloride)]; settings: 2.5 µM; K562; 2-18 h
Dorsomorphin = compound: c1cc(-c2cnn3cc(-c4ccc(OCCN5CCCCC5)cc4)cnc23)ccn1 [Dorsomorphin]; settings: 2.5 µM; K562; 2-18 h

FYN (UniProt P06241)
number of time points [1]: 0
number of time points (PI-103 (Hydrochloride)): 0
number of time points [2]: 2
number of time points [3]: 1
number of time points (Dorsomorphin): 0

MAPK1 (UniProt P28482)
number of time points [1]: 0
number of time points (PI-103 (Hydrochloride)): 0
number of time points [2]: 0
number of time points [3]: 0
number of time points (Dorsomorphin): 0

PDGFRB (UniProt P09619)
number of time points [1]: 0
number of time points (PI-103 (Hydrochloride)): 0
number of time points [2]: 0
number of time points [3]: 3
number of time points (Dorsomorphin): 0

LIMK2 (UniProt P53671)
number of time points [1]: 0
number of time points (PI-103 (Hydrochloride)): 0
number of time points [2]: 0
number of time points [3]: 0
number of time points (Dorsomorphin): 1

BMX (UniProt P51813)
number of time points [1]: 0
number of time points (PI-103 (Hydrochloride)): 0
number of time points [2]: 0
number of time points [3]: 3
number of time points (Dorsomorphin): 1

CDK5 (UniProt Q00535)
number of time points (PI-103 (Hydrochloride)): 0
number of time points [2]: 0
number of time points [3]: 0
number of time points (Dorsomorphin): 0

PRKCA (UniProt P17252)
number of time points [1]: 0
number of time points (PI-103 (Hydrochloride)): 0
number of time points [2]: 0
number of time points [3]: 0
number of time points (Dorsomorphin): 0
